Laboratory results from paper PMC6155330.
These are yes or no findings as the source states them, for the method shown. Binding seen in cells or lysates may run through a third protein. Some entries that bind do so weakly or less than the wild type.

Chains of the proteins cited; added tags and fusions are not shown.
UniProt O60566: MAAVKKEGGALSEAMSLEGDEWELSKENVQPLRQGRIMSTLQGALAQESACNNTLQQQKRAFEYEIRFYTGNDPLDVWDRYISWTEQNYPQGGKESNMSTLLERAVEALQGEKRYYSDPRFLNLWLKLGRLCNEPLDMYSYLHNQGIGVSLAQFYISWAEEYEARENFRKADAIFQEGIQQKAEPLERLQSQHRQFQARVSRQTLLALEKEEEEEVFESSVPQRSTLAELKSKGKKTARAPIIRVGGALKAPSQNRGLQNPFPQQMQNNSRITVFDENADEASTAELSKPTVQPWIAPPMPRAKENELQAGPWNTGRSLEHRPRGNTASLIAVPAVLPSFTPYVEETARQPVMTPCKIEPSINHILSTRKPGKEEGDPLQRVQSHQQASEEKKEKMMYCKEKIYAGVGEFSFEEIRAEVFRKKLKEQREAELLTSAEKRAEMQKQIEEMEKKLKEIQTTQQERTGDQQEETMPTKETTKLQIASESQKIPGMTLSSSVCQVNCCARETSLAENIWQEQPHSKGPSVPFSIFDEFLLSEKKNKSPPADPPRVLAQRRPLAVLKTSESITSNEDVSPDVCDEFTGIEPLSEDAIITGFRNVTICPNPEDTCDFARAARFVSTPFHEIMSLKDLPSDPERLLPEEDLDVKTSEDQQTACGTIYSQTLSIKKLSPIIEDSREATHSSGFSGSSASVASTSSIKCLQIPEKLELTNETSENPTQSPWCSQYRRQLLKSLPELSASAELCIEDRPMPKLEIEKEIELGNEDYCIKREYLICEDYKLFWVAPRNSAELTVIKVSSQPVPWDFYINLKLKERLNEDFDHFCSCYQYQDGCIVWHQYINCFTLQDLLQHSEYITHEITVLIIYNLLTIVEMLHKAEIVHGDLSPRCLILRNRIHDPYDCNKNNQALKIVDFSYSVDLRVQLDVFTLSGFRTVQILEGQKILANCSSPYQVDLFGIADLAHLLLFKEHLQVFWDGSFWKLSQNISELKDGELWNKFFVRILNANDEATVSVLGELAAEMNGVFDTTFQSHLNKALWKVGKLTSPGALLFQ
UniProt O43684: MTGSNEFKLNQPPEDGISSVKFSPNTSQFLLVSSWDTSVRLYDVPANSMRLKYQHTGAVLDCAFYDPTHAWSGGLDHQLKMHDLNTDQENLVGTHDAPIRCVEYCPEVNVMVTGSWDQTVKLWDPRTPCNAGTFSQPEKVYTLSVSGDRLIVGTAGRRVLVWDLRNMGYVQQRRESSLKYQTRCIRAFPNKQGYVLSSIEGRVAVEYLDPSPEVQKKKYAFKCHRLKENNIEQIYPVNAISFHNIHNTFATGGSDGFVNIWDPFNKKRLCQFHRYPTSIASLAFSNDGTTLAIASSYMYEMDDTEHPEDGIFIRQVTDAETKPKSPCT

Target: BubR1 (human (endogenous in HeLa)) (UniProt O60566)
Assay: co-IP; HeLa cells in 1 uM Taxol for 12 hours, then MG132 with DMSO control or SB415286 (SB), harvested after 2.5 hours; RIPA lysate, 200-300 ug, immunoprecipitated with BubR1 antibody (IgG as control) and protein A-agarose; washed four times with lysis buffer containing 250 mM NaCl; western blot

Q: Which binding does the source give for Bub3 (from UniProt O43684 1-328) here?
A: binds
